Results from PubChem BioAssay AID1259415 (National Center for Advancing Translational Sciences (NCATS), 2018).
Hit rate of the full screen: of about 410,000 compounds, about 18,000 (4.4%) were called active. The inconclusive results got no clear call from the source; some entries with a clear call stand among them for comparison. No stated cut-off is given here; in the data, active means activity change below about -60%; inconclusive means no clear call, values can overlap the other calls; inactive means above about -39%.

Assay: qHTS Assay for inhibitors of the human cytomegalovirus (HCMV)
Details: HFF cells, HCMV-luciferase reporter, 72 h; at 57.5 µM; active compounds read low
How it was run: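 Cell-based, HFFs, 1000 cells/well, 16 h 37C; cpds in DMSO + HCMV-luc, MOI 1 PFU/cell; 72 h 37C; OneGlo luminescence after 5 min RT; norm. to buffer vs Salinomycin 10uM.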
On the % scale 0 is the no-effect control and ±100 the full control effect.

Compound | activity change, negative = inhibition
CC1CCc2c(sc3nc(-c4cc5cc(Br)ccc5oc4=O)[nH]c(=O)c23)C1 (configuration not stated) | inconclusive: -48.9%
COc1cccc(/C=C/c2nc3c(cnn3-c3ccccc3)c(=O)[nH]2)c1 | inconclusive: -46.9%
C(=N\Nc1nc(N2CCCCCC2)nc(N2CCCCCC2)n1)/c1ccccc1 | inconclusive: -52.8%
C[C@H](CO)N1C[C@H](C)[C@@H](CN(C)C(=O)Nc2ccc(C(F)(F)F)cc2)Oc2ccc(NS(=O)(=O)c3cccs3)cc2C1=O | inconclusive: -42.3%
CC1(C(=O)NS(=O)(=O)c2cccc(OC(F)F)c2)CCN1C(=O)Cc1ccccc1 (configuration not stated) | inactive: 13.8%
CCc1c(C)sc(NC(=O)c2ccoc2C)c1C(N)=O | inconclusive: -55.5%
COc1ccc(OCCCC(=O)Nc2ncn[nH]2)cc1 | inactive: -7.79%
Cc1cccc(N2CCN(C(=S)Nc3ccc4nc(N5CCN(C)CC5)cc(C)c4c3)CC2C)c1 (configuration not stated) | inconclusive: -44.7%
CCCCOc1cc(NCc2ccccc2)c2ncn(C(C)C)c2c1 | inconclusive: -57.3%
COC(=O)Cc1[nH]n(-c2ccccc2)c(=O)c1C=Nc1ccc(C)cc1 | inconclusive: -42.9%
O=C1/C(=C/c2cccc(Cl)c2)SC(=S)N1CCC(=O)N1CCCCC1CCO (configuration not stated) | active: -82.5%
O=C(Nc1cc(C(F)(F)F)cc(C(F)(F)F)c1)O[C@@H]1c2ccccc2[C@@H]2Cc3csc[n+]3[C@H]12 | inactive: 8.61%
O=C(O)c1cc2cc(Oc3ccccc3)ccc2[nH]1 | inactive: -7.57%
CCOc1cc(/C=N/N2CCOCC2)ccc1OCc1ccc(C(=O)OC)o1 | inconclusive: -57.7%
CCCC(=O)NC1CCc2cc(OC)c(OC)c(OC)c2-c2ccc(OC)c(=O)cc21 (configuration not stated) | active: -91.3%
COc1ccc(-n2nc([N+](=O)[O-])c(=NCc3cccnc3)n2O)cc1 | inactive: 10.4%
O=C(c1ccc(CSCc2ccccc2F)o1)N1CCN(c2ccc(N3CCOCC3)nn2)CC1 | inconclusive: -50.5%
COc1cccc(CNc2nc(NCc3ccccc3OC)nc3ccsc23)c1 | active: -90.2%
COc1ccc(Cc2noc(CN3CCC(c4ccncc4)CC3)n2)cc1OC | inconclusive: -57.5%
CC(C)C(NS(=O)(=O)c1cc(C(=O)O)ccc1Cl)C(=O)O (configuration not stated) | inactive: 7.06%
O=C(Nc1ccccc1N1CCN(C(=O)c2ccccc2)CC1)c1ccc([N+](=O)[O-])o1 | inconclusive: -55.4%

Exported as tab-separated lines: part of the list above.
Compound	activity change, negative = inhibition
COc1cccc(/C=C/c2nc3c(cnn3-c3ccccc3)c(=O)[nH]2)c1	inconclusive: -46.9%
Cc1cccc(N2CCN(C(=S)Nc3ccc4nc(N5CCN(C)CC5)cc(C)c4c3)CC2C)c1 (configuration not stated)	inconclusive: -44.7%
O=C1/C(=C/c2cccc(Cl)c2)SC(=S)N1CCC(=O)N1CCCCC1CCO (configuration not stated)	active: -82.5%

(cont.)

Compound | activity change, negative = inhibition
O=C(CSc1nnc(-c2ccc(F)cc2)o1)NC1CCCC1 | inconclusive: -43.5%
CCC(=O)Nc1ccc(C(=O)NNC(=O)CCCCC(=O)NNC(=O)c2ccc(NC(=O)CC)cc2)cc1 | inactive: -6.12%
CCc1nnc(NC(=O)c2ccc(NC(=O)C(C)C)cc2)s1 | inactive: 86.9%
COc1ccc(-c2c3c(cc4ncn(Cc5ccccc5)c24)COC3=O)cc1 | inconclusive: -40.2%
Cc1nc2cccnc2n1C1CCN(S(C)(=O)=O)CC1 | inactive: -20%
O=C1[C@@H]2[C@@H]3C[C@@H]([C@H]4ON=C(c5ccc(Cl)cc5)[C@@H]34)[C@@H]2C(=O)N1C1CCCCC1 | inconclusive: -51.9%
COc1ccc(N2CCN(C3CC(=O)N(Cc4ccccc4)C3=O)CC2)cc1 (configuration not stated) | inactive: -24.5%
COc1ccc(CS(=O)(=O)CC(C)(O)c2ccccc2Cl)cc1 (configuration not stated) | inactive: 6.74%
CCC(=O)/C=C1/Sc2ccccc2N1CC | inconclusive: -53.8%
Clc1ccccc1CNC1CN2CCC1CC2 (configuration not stated) | inconclusive: -40.7%
O=S(=O)(Nc1ccc2nc(C(F)(F)F)[nH]c2c1)c1ccccc1 | inconclusive: -47.2%
CC1(c2ccc3noc(-c4ccc(Cl)cc4)c3c2)OCCO1 | inconclusive: -43.3%
COc1ccccc1C(=O)CC(=O)C(=O)Nc1cccc([N+](=O)[O-])c1C | inconclusive: -56.8%
O=C(NNC(=O)c1ccc2[nH]c(=O)c(=O)[nH]c2c1)c1cccc(Br)c1 | inconclusive: -45.4%
O=C(CN1C(=O)c2ccccc2S1(=O)=O)c1ccc2c(c1)OCCO2 | active: -98.4%
CC(C)(C)OC(=O)C[C@@H]1C/C=C\C[C@@H](CC(=O)NCCO)C(=O)N2CCC[C@H]2COC1=O | inactive: -19.3%
C/C(=C\C=C(C#N)C#N)c1cc(C#N)c(N)o1 | inconclusive: -45.1%
O=C(Oc1cc2oc(=O)cc(-c3ccccc3)c2cc1Cl)C1CCCCC1 | inactive: -32.2%
Cc1ccc(CNC(=O)CN2C(=O)COc3ccc(S(=O)(=O)N4CCC(C)CC4)cc32)o1 | inactive: -36.5%
COc1ccc(Cn2cccc(NC(=O)Nc3ccc(F)cc3)c2=O)cc1 | inconclusive: -46.6%
CC(/C=C/c1ccc(O)cc1)=N/O | inconclusive: -51.7%
